# In PMC8863821:
# Amino acid sequences for entries named in this document (tags omitted).
# UniProt O43809: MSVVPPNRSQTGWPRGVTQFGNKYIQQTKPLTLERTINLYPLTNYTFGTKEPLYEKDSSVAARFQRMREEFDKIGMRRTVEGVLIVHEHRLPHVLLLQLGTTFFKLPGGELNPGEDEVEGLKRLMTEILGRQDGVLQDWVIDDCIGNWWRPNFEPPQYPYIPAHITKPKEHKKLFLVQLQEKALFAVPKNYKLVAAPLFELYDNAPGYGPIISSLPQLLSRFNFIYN
# UniProt P51114: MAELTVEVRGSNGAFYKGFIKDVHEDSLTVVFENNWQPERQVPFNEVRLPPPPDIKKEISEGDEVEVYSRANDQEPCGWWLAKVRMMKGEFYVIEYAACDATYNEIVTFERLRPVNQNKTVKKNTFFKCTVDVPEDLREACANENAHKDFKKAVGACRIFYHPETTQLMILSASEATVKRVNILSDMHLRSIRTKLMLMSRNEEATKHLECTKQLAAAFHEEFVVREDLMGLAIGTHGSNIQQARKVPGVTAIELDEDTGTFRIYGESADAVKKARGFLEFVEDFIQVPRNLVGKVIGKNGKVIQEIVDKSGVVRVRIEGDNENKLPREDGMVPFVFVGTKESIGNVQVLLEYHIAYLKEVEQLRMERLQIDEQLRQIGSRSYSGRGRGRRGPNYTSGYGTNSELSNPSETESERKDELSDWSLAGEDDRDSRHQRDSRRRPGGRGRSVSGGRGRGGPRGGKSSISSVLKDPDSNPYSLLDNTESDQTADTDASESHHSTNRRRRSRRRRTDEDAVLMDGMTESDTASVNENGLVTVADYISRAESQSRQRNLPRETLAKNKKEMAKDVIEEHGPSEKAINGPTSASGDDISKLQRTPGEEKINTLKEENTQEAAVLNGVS
# UniProt Q16630: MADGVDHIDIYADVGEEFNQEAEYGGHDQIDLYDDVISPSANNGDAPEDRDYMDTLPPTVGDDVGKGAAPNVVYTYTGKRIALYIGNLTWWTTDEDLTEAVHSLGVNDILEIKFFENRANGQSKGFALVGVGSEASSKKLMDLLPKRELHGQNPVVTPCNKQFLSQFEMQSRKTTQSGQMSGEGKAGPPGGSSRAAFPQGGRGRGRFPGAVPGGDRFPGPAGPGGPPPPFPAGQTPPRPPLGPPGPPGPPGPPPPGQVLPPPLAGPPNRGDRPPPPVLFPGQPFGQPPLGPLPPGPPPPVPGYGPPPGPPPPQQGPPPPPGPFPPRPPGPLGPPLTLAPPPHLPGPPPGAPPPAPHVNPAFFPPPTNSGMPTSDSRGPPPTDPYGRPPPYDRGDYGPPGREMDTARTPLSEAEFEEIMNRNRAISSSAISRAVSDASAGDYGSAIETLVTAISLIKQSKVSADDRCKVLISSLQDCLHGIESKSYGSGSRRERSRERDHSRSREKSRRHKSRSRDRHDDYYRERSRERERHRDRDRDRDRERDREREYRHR
# Results are given in words; binding and its absence hold for the method and conditions named. Binding seen in cells or lysates may run through a third protein. Some binding calls cover weakened binding; strength is not graded here.
# Assays:
# [1] = biological target: cleavage factor Im 25 (CFIm25) (human (endogenous in T24)) (UniProt O43809); assay: co-IP; co-IP of the CFIm25-interacting complex from T24 cells, western blot
# [2] = biological target: Fragile X-related gene 1 (FXR1) (human (endogenous in T24)) (UniProt P51114); assay: co-IP; T24 cell lysates fractionated by 5-25% glycerol gradient sedimentation, then IP of FXR1 (anti-FXR1) across each fraction, western blot
# [3] = biological target: Fragile X-related gene 1 (FXR1) (human (endogenous in T24)) (UniProt P51114); assay: co-IP; co-IP of the FXR1-interacting complex from T24 cells, western blot
binding [1],binding [2],binding [3],Substance
binds,,,Fragile X-related gene 1 (FXR1) (from UniProt P51114 1-621)
binds,binds,binds,cleavage factor Im 68 (CFIm68) (from UniProt Q16630 1-551)
